Measurements as given in US8802634B2, “CD40-L Inhibitory Peptides” (Phylogica Limited, priority 2008, dated 2014).
pEC50: −log10 of the molar value. Where two headings read alike, the source gives them in different places. For at least one compound, name, drawing or mass did not settle the structure. Where a SMILES comes first, the peptide text is derived from it. Bridges are numbered along the chain shown (N, C = ends). Roman numbers before positions name the chains, in order. [ ]: non-standard residue; d: D form. AEEA = NCCOCCOCC(=O)O

By UniProt entry, the sequences of proteins in these tests, tags left out. Where a name states a change or a piece, a line headed by the entry shows the natural chain unless it says otherwise.
UniProt P29965: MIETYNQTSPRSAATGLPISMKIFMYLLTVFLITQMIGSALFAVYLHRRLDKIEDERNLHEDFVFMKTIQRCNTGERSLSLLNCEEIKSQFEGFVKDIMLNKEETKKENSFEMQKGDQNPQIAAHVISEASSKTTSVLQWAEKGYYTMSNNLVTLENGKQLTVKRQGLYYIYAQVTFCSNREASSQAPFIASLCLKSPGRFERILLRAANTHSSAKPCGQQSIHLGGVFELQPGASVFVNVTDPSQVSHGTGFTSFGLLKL

Biological target: CD40L-induced CD86 expression on primary B-cells (Homo sapiens, UniProt P29965)
Experiment: Inhibition of CD40L-induced CD86 expression on primary B-cells (FACS)
Type: cell-based
Method: In one example, the ability of a peptide, analog or derivative of the invention to inhibit or reduce or delay expression of CD86 on primary B-cells was determined in the presence and absence of the peptides, analogs and derivatives of the invention. In particular, CD86 expression was determined by FACS.
In these assays, CD40L induced CD86 expression in a concentration-dependent manner in the absence of a peptidyl inhibitor of the present invention with an EC50 value of about 9 nM (FIG. 6d, 6e). As a control in these assays, LPS-induced expression of CD86 mediated by the Toll-like receptors TLR 2/4, and TNFα-induced cytoxicity, were also assayed to exclude effects mediated by ligands other than CD40L.
In a similar series of bioassays, dimeric forms of the CD40L peptide inhibitors were also tested for their ability to inhibit or reduce CD40L-induced expression of CD86 on primary B-cells.

[1] = monomeric and dimeric peptides, Table 7, read-out: EC50

| Compound | pEC50 [1] | pEC50 (read-out: EC50 for inhibition of CD40L-induced expression of CD86) |
| --- | --- | --- |
| CC[C@H](C)[C@H](NC(=O)[C@H](CO)NC(=O)[C@H](Cc1ccccc1)NC(=O)[C@@H](NC(=O)[C@H](CC(N)=O)NC(=O)[C@H](CCCCN)NC(=O)[C@@H](NC(=O)[C@H](CO)NC(=O)[C@H](Cc1ccccc1)NC(=O)[C@@H]1CCCN1C(=O)[C@H](Cc1c[nH]cn1)NC(=O)COCCOCCNC(=O)[C@@H](N)CSSC[C@H](N)C(=O)NCCOCCOCC(=O)N[C@@H](Cc1c[nH]cn1)C(=O)N1CCC[C@H]1C(=O)N[C@@H](Cc1ccccc1)C(=O)N[C@@H](CO)C(=O)N[C@H](C(=O)N[C@@H](CCCCN)C(=O)N[C@@H](CC(N)=O)C(=O)N[C@H](C(=O)N[C@@H](Cc1ccccc1)C(=O)N[C@@H](CO)C(=O)N[C@H](C(=O)N[C@@H](Cc1c[nH]c2ccccc12)C(=O)N[C@@H](CC(N)=O)C(=O)N[C@@H](Cc1ccccc1)C(=O)N[C@@H](Cc1ccccc1)C(=O)N[C@@H](CO)C(=O)N[C@H](C(=O)N[C@@H](Cc1ccc(O)cc1)C(=O)O)C(C)C)[C@@H](C)CC)C(C)C)[C@@H](C)CC)[C@@H](C)CC)C(C)C)C(=O)N[C@@H](Cc1c[nH]c2ccccc12)C(=O)N[C@@H](CC(N)=O)C(=O)N[C@@H](Cc1ccccc1)C(=O)N[C@@H](Cc1ccccc1)C(=O)N[C@@H](CO)C(=O)N[C@H](C(=O)N[C@@H](Cc1ccc(O)cc1)C(=O)O)C(C)C [Cys_M1_6S homodimer] (I: H-C[AEEA]HPFSIKNVFSIWNFFSVY-OH / II: H-C[AEEA]HPFSIKNVFSIWNFFSVY-OH; disulfide I:1-II:1; C-terminus assumed) | 7.31 | – |
| CC[C@H](C)[C@H](NC(=O)[C@H](CO)NC(=O)[C@H](Cc1c[nH]c2ccccc12)NC(=O)[C@H](CCC(N)=O)NC(=O)[C@@H](NC(=O)[C@@H]1CCCN1C(=O)[C@H](Cc1ccccc1)NC(=O)[C@H](Cc1ccccc1)NC(=O)[C@H](Cc1c[nH]c2ccccc12)NC(=O)CNC(=O)[C@H](Cc1ccc(O)cc1)NC(=O)[C@H](CCCCN)NC(=O)[C@H](CC(C)C)NC(=O)[C@@H](NC(=O)[C@H](Cc1c[nH]cn1)NC(=O)[C@H](CO)NC(=O)[C@H](CCCNC(=N)N)NC(=O)[C@H](Cc1ccc(O)cc1)NC(=O)[C@@H]1CCCN1C(=O)[C@@H](NC(=O)[C@H](Cc1ccccc1)NC(=O)[C@@H]1CCCN1C(=O)[C@@H](N)CC(C)C)C(C)C)C(C)C)C(C)C)C(=O)N[C@@H](Cc1ccccc1)C(=O)N[C@@H](C)C(=O)N[C@H](C(=O)N[C@@H](CC(C)C)C(=O)N1CCC[C@H]1C(=O)N[C@@H](Cc1ccccc1)C(=O)N[C@@H](CCC(N)=O)C(=O)N[C@@H](Cc1ccc(O)cc1)C(=O)N[C@@H](CC(C)C)C(=O)N[C@@H](Cc1c[nH]cn1)C(=O)N[C@@H](CCCNC(=N)N)C(=O)N[C@@H](CO)C(=O)N[C@@H](CCCNC(=N)N)C(=O)O)C(C)C [CD40L M1_18s] (H-LPFVPYRSHVLKYGWFFPVQWSIFAVLPFQYLHRSR-OH; N-terminus and C-terminus assumed) | 6.13 | ~6.13 |
